Results reported in publication PMC12084419.
No constants are given. Whether binding was seen depends on the method and setting. In cells and extracts the contact can be indirect. Some results given as binding are weak or reduced against the parent protein; the word gives no strength. Tags and fused reporters may be left off the sequences shown.

Amino acid sequences for entries named in this document (tags omitted).
UniProt Q9UHP3: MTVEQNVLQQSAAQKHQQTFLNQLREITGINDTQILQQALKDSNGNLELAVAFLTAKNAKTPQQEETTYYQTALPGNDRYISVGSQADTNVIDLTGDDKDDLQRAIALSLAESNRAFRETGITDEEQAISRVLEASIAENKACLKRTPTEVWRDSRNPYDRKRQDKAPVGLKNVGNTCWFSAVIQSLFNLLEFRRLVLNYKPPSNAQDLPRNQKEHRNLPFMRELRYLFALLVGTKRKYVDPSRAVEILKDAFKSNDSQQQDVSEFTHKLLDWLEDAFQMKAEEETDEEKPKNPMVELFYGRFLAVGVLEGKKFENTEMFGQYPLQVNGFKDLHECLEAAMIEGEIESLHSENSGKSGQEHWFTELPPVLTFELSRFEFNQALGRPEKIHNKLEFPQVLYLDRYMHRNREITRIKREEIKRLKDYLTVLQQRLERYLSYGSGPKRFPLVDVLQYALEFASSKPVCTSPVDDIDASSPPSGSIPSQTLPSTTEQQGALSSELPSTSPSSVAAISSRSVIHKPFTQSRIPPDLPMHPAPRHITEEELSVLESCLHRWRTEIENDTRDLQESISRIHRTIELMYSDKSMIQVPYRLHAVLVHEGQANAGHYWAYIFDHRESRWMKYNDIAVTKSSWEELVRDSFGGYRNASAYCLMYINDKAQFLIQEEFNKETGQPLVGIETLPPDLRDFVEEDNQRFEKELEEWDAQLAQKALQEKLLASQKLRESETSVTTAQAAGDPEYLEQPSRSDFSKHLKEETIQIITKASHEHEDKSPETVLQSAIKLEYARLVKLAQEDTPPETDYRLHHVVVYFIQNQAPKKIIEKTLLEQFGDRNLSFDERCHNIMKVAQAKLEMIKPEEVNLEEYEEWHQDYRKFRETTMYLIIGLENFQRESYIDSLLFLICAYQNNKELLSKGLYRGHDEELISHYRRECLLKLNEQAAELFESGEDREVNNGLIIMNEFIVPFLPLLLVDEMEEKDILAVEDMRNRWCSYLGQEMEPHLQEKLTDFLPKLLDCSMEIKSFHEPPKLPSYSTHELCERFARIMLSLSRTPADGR

Columns and labels:
[1] = target: T1, KIFC1 of the Nanoluc luciferase assay (UniProt Q9BW19); assay: split reporter; Nanoluc luciferase assay in HeLa cells; KIFC1 against 40 genes of the USP family; relative chemiluminescence intensity
T1 sequence: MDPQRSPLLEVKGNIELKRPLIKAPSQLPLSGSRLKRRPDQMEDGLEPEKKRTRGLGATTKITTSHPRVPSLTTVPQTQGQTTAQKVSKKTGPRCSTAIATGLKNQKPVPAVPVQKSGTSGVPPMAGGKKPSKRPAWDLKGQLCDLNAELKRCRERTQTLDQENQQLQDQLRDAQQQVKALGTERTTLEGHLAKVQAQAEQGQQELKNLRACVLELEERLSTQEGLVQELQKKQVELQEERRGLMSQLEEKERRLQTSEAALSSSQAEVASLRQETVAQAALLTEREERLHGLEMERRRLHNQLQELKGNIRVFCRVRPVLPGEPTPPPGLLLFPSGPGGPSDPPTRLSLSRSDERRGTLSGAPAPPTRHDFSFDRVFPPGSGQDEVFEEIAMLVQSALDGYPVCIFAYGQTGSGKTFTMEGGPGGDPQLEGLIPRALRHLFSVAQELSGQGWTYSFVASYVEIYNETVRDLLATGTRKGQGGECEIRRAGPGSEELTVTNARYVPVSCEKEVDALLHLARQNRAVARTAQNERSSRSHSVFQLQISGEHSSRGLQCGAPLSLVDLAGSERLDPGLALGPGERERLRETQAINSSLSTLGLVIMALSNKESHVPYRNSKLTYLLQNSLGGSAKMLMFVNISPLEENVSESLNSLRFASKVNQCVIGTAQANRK

[2] = target: T2, Flag-KIFC1 (Kinesin Family Member C1, Flag-tagged) (UniProt Q9BW19); assay: co-IP; Flag-KIFC1 and an HA-tagged partner exogenously co-expressed in HeLa and SiHa cells; NP-40 lysis buffer; anti-Flag affinity gel overnight at 4 °C; immunoblot
T2 sequence: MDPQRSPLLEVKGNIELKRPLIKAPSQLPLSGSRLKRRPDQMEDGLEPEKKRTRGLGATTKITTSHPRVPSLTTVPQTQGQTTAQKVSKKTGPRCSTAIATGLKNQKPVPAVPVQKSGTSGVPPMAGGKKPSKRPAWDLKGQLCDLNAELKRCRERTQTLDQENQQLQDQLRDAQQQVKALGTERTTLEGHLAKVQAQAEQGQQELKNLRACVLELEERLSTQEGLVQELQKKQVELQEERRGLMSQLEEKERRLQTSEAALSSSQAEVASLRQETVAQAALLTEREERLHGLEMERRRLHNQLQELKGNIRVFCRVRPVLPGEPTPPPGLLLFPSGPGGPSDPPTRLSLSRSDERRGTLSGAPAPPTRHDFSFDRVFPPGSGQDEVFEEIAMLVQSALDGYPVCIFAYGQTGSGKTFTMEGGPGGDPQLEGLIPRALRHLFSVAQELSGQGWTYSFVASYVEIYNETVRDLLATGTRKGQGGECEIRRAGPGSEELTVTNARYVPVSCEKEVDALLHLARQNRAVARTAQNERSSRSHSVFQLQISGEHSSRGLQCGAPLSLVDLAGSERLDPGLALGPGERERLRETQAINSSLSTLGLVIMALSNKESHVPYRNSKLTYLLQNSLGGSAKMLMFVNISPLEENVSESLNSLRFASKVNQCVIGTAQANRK

[3] = target: T2, Flag-KIFC1 (Kinesin Family Member C1, Flag-tagged); assay: co-IP; HA-USP25, Flag-KIFC1 and His-MYCBP together; co-immunoprecipitation with antibodies to the tags (three panels); cells and bait of each panel not stated
[4] = target: T2, Flag-KIFC1 (Kinesin Family Member C1, Flag-tagged); assay: co-IP; Flag-KIFC1 and an HA-tagged partner exogenously co-expressed in HeLa and SiHa cells; NP-40 lysis buffer; anti-Flag affinity gel overnight at 4 °C; immunoblot; remark: listed apart in the source
GST-USP25 = GST-USP25 (UniProt Q9UHP3); assay: pull-down; GST-USP25 and His-KIFC1 co-transformed into E. coli BL21 (DE3); bacterial lysate (50 mM Tris-HCl pH 7.4, 150 mM NaCl, 1 mM EDTA, 1% Triton X-100) on Glutathione Sepharose 4B beads, 4 °C, 3 h; anti-His and anti-GST immunoblot

Molecule: USP25 of the Nanoluc luciferase assay (from UniProt Q9UHP3 1-1055) (enzyme)
- binding [1]: binds

Molecule: HA-USP25 (from UniProt Q9UHP3 1-1055) (enzyme)
- binding [2]: binds
- binding [3]: binds

B1: HA-MYCBP (protein, UniProt Q99417 1-103)
chain: MAHYKAADSKREQFRRYLEKSGVLDTLTKVLVALYEEPEKPNSALDFLKHHLGAATPENPEIELLRLELAEMKEKYEAIVEENKKLKAKLAQYEPPQEEKRAE
- binding [4]: binds

B2: His-MYCBP (protein, UniProt Q99417 1-103)
chain: MAHYKAADSKREQFRRYLEKSGVLDTLTKVLVALYEEPEKPNSALDFLKHHLGAATPENPEIELLRLELAEMKEKYEAIVEENKKLKAKLAQYEPPQEEKRAE
- binding [3]: binds

B3: USP29 of the Nanoluc luciferase assay (enzyme, UniProt Q9HBJ7 1-922)
chain: MISLKVCGFIQIWSQKTGMTKLKEALIETVQRQKEIKLVVTFKSGKFIRIFQLSNNIRSVVLRHCKKRQSHLRLTLKNNVFLFIDKLSYRDAKQLNMFLDIIHQNKSQQPMKSDDDWSVFESRNMLKEIDKTSFYSICNKPSYQKMPLFMSKSPTHVKKGILENQGGKGQNTLSSDVQTNEDILKEDNPVPNKKYKTDSLKYIQSNRKNPSSLEDLEKDRDLKLGPSFNTNCNGNPNLDETVLATQTLNAKNGLTSPLEPEHSQGDPRCNKAQVPLDSHSQQLQQGFPNLGNTCYMNAVLQSLFAIPSFADDLLTQGVPWEYIPFEALIMTLTQLLALKDFCSTKIKRELLGNVKKVISAVAEIFSGNMQNDAHEFLGQCLDQLKEDMEKLNATLNTGKECGDENSSPQMHVGSAATKVFVCPVVANFEFELQLSLICKACGHAVLKVEPNNYLSINLHQETKPLPLSIQNSLDLFFKEEELEYNCQMCKQKSCVARHTFSRLSRVLIIHLKRYSFNNAWLLVKNNEQVYIPKSLSLSSYCNESTKPPLPLSSSAPVGKCEVLEVSQEMISEINSPLTPSMKLTSESSDSLVLPVEPDKNADLQRFQRDCGDASQEQHQRDLENGSALESELVHFRDRAIGEKELPVADSLMDQGDISLPVMYEDGGKLISSPDTRLVEVHLQEVPQHPELQKYEKTNTFVEFNFDSVTESTNGFYDCKENRIPEGSQGMAEQLQQCIEESIIDEFLQQAPPPGVRKLDAQEHTEETLNQSTELRLQKADLNHLGALGSDNPGNKNILDAENTRGEAKELTRNVKMGDPLQAYRLISVVSHIGSSPNSGHYISDVYDFQKQAWFTYNDLCVSEISETKMQEARLHSGYIFFYMHNGIFEELLRKAENSRLPSTQAGVIPQGEYEGDSLYRPA
- binding [1]: binds

B4: USP52 of the Nanoluc luciferase assay (enzyme, UniProt Q504Q3 1-1202)
chain: MNFEGLDPGLAEYAPAMHSALDPVLDAHLNPSLLQNVELDPEGVALEALPVQESVHIMEGVYSELHSVVAEVGVPVSVSHFDLHEEMLWVGSHGGHATSFFGPALERYSSFQVNGSDDIRQIQSLENGILFLTKNNLKYMARGGLIIFDYLLDENEDMHSLLLTDSSTLLVGGLQNHIIEIDLNTVQETQKYAVETPGVTIMRQTNRFFFCGHTSGKVSLRDLRTFKVEHEFDAFSGSLSDFDVHGNLLAACGFSSRLTGLACDRFLKVYDLRMMRAITPLQVHVDPAFLRFIPTYTSRLAIISQSGQCQFCEPTGLANPADIFHVNPVGPLLMTFDVSASKQALAFGDSEGCVHLWTDSPEPSFNPYSRETEFALPCLVDSLPPLDWSQDLLPLSLIPVPLTTDTLLSDWPAANSAPAPRRAPPVDAEILRTMKKVGFIGYAPNPRTRLRNQIPYRLKESDSEFDSFSQVTESPVGREEEPHLHMVSKKYRKVTIKYSKLGLEDFDFKHYNKTLFAGLEPHIPNAYCNCMIQVLYFLEPVRCLIQNHLCQKEFCLACELGFLFHMLDLSRGDPCQGNNFLRAFRTIPEASALGLILADSDEASGKGNLARLIQRWNRFILTQLHQDMQELEIPQAYRGAGGSSFCSSGDSVIGQLFSCEMENCSLCRCGSETVRASSTLLFTLSYPDGSKSDKTGKNYDFAQVLKRSICLDQNTQAWCDTCEKYQPTIQTRNIRHLPDILVINCEVNSSKEADFWRMQAEVAFKMAVKKHGGEISKNKEFALADWKELGSPEGVLVCPSIEELKNVWLPFSIRMKMTKNKGLDVCNWTDGDEMQWGPARAEEEHGVYVYDLMATVVHILDSRTGGSLVAHIKVGETYHQRKEGVTHQQWYLFNDFLIEPIDKHEAVQFDMNWKVPAILYYVKRNLNSRYNLNIKNPIEASVLLAEASLARKQRKTHTTFIPLMLNEMPQIGDLVGLDAEFVTLNEEEAELRSDGTKSTIKPSQMSVARITCVRGQGPNEGIPFIDDYISTQEQVVDYLTQYSGIKPGDLDAKISSKHLTTLKSTYLKLRFLIDIGVKFVGHGLQKDFRVINLMVPKDQVLDTVYLFHMPRKRMISLRFLAWYFLDLKIQGETHDSIEDARTALQLYRKYLELSKNGTEPESFHKVLKGLYEKGRKMDWKVPEPEGQTSPKNAAVFSSVLAL
- binding [1]: binds

B5: His-KIFC1 (protein, UniProt Q9BW19 1-673)
chain: MDPQRSPLLEVKGNIELKRPLIKAPSQLPLSGSRLKRRPDQMEDGLEPEKKRTRGLGATTKITTSHPRVPSLTTVPQTQGQTTAQKVSKKTGPRCSTAIATGLKNQKPVPAVPVQKSGTSGVPPMAGGKKPSKRPAWDLKGQLCDLNAELKRCRERTQTLDQENQQLQDQLRDAQQQVKALGTERTTLEGHLAKVQAQAEQGQQELKNLRACVLELEERLSTQEGLVQELQKKQVELQEERRGLMSQLEEKERRLQTSEAALSSSQAEVASLRQETVAQAALLTEREERLHGLEMERRRLHNQLQELKGNIRVFCRVRPVLPGEPTPPPGLLLFPSGPGGPSDPPTRLSLSRSDERRGTLSGAPAPPTRHDFSFDRVFPPGSGQDEVFEEIAMLVQSALDGYPVCIFAYGQTGSGKTFTMEGGPGGDPQLEGLIPRALRHLFSVAQELSGQGWTYSFVASYVEIYNETVRDLLATGTRKGQGGECEIRRAGPGSEELTVTNARYVPVSCEKEVDALLHLARQNRAVARTAQNERSSRSHSVFQLQISGEHSSRGLQCGAPLSLVDLAGSERLDPGLALGPGERERLRETQAINSSLSTLGLVIMALSNKESHVPYRNSKLTYLLQNSLGGSAKMLMFVNISPLEENVSESLNSLRFASKVNQCVIGTAQANRK
- binding (GST-USP25): binds
